The other results are listed elsewhere or left out.
compound: NC1(c2ccc(-c3nc4ccn5c(=O)[nH]nc5c4cc3-c3ccccc3)cc2)CCC1; assay: log2 fold change, soluble protein after heating vs DMSO (PISA); higher = thermal stabilisation; K562 lysate, 10 uM; active = over 0.2 and 3.5 SD of the protein, either way, in both replicates (recomputed)
Summary of the method: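 Soluble protein was defined as the supernatant remaining after 21,000xg for 90 min, following pooling of heated aliquots and adjustment to 0.5% NP-40 at 4°C. Before that, crude K562 extract at 1 mg/mL protein in PBS pH 7.4 with 1 mM MgCl2 was treated with 10 μM compound for 30 min and heated for 3 min across 48°C-58°C. Quantification used TMTpro 16plex LC-MS/MS with channel sums equalised, and values are log-two fold changes in thermal stability relative to solvent controls from duplicates.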

Chains of the proteins cited; added tags and fusions are not shown. Lines headed by an entry give the natural chain unless they say otherwise; changes in a name come on top.
UniProt P23677, whole entry, looked up: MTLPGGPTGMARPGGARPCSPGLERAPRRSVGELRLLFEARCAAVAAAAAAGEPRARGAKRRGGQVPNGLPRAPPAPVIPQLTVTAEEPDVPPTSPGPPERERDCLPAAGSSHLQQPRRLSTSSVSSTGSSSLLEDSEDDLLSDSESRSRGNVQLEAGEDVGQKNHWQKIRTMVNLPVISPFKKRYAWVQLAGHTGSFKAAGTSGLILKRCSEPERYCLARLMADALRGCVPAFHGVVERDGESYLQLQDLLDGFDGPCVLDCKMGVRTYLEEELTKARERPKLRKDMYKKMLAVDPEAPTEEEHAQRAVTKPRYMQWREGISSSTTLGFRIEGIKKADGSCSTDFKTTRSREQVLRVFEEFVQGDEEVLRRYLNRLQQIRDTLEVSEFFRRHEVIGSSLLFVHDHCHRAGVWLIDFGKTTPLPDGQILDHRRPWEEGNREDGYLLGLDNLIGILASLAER
UniProt Q9H7Z6: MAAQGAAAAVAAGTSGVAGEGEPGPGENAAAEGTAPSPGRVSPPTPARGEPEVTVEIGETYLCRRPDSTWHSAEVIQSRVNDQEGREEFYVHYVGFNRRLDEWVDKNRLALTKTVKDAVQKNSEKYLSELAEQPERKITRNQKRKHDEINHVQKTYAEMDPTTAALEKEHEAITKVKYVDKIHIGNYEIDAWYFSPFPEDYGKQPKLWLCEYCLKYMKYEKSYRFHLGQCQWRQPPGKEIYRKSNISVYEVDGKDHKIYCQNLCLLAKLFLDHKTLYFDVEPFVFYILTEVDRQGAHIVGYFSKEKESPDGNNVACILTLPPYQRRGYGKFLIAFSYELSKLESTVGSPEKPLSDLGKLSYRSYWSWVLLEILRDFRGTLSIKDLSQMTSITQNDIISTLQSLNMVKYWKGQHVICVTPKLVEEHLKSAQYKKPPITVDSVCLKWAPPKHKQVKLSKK
UniProt Q96SY0, whole entry, looked up: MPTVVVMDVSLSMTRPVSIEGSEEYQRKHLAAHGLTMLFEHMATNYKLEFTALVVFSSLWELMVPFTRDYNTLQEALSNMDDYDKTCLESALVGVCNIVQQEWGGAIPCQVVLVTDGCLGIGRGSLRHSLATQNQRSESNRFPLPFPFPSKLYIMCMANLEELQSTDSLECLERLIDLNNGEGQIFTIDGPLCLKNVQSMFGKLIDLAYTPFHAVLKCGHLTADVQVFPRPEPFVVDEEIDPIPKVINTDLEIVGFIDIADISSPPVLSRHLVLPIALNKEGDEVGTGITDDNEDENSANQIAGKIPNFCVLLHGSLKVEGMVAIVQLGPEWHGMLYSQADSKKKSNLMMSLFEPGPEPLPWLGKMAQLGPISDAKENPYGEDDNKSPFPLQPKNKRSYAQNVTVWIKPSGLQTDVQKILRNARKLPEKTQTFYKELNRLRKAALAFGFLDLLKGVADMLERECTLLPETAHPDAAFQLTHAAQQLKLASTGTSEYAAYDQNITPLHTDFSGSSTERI
UniProt Q96AB3: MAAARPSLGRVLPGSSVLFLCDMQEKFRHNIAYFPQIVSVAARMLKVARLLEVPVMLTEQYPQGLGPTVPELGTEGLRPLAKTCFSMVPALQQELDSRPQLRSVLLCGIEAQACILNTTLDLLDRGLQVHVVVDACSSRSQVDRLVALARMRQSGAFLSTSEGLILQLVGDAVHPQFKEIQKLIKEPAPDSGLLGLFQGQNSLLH
UniProt Q9NXV2: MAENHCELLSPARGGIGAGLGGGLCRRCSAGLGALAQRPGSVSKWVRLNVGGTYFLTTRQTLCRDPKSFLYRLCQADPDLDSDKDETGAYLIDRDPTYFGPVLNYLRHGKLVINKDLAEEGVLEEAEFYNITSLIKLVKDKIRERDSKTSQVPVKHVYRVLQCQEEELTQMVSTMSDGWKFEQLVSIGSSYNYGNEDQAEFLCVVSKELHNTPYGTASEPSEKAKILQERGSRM
UniProt Q9BW62: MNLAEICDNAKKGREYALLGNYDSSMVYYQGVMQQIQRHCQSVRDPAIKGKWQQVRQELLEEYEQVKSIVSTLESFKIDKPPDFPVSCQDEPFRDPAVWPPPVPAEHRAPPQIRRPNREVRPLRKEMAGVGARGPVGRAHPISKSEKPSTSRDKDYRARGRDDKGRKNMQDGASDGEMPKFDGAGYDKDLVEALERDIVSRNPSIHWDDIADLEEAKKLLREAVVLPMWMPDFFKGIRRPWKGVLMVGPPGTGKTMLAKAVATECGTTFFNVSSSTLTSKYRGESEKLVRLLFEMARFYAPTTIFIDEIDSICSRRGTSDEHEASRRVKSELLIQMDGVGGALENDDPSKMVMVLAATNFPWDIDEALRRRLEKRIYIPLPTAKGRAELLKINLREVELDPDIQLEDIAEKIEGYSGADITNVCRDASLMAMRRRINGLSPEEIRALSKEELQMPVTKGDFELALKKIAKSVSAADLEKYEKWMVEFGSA
UniProt P53990, whole entry, looked up: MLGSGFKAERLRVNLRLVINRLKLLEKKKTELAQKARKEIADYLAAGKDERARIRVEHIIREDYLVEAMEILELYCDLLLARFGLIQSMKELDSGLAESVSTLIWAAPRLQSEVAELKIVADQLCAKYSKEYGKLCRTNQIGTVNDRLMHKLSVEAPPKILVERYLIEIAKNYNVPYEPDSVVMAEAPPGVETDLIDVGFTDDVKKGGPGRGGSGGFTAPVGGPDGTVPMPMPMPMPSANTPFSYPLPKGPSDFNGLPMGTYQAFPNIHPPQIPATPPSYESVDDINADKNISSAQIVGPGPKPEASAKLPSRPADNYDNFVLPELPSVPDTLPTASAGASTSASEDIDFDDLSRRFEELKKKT
UniProt Q96HW7, whole entry, looked up: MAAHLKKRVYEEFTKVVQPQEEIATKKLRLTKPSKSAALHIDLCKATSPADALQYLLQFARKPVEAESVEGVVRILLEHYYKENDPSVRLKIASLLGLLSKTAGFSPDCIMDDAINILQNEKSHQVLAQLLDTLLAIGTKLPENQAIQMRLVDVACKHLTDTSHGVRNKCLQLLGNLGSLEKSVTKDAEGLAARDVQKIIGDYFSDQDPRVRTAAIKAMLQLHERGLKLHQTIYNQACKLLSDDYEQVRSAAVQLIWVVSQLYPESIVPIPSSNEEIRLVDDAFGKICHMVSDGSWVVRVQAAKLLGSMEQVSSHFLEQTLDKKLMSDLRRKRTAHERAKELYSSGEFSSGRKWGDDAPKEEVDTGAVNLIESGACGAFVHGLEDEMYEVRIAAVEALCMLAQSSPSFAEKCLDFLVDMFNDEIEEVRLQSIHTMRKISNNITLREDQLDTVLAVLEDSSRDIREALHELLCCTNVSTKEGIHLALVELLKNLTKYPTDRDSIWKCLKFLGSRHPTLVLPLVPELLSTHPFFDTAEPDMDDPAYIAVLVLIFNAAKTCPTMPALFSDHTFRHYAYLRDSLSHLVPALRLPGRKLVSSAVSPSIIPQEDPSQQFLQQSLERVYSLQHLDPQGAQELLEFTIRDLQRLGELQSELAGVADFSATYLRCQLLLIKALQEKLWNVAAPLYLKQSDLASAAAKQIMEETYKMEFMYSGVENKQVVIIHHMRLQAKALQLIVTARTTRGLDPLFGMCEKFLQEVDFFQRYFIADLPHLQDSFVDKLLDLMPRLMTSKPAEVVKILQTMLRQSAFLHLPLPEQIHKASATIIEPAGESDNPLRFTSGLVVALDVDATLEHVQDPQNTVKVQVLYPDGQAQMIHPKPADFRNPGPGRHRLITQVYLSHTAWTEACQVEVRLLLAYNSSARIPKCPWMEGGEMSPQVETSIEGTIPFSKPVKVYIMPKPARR
UniProt Q15046, whole entry, looked up: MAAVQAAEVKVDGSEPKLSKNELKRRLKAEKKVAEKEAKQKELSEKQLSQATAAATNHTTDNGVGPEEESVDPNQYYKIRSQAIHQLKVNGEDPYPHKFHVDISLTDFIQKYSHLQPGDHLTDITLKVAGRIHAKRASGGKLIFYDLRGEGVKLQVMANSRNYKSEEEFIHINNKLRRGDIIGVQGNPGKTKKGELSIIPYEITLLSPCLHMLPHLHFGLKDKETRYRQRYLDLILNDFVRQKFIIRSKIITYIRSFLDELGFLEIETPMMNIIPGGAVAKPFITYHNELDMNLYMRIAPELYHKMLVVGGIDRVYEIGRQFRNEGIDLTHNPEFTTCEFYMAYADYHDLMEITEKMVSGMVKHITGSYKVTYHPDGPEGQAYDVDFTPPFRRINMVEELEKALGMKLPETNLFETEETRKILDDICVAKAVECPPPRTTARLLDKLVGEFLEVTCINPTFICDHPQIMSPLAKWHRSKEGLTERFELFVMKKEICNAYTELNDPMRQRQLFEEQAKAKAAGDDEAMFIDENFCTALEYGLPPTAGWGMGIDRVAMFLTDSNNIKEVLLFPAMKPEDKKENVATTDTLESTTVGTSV
UniProt O75449: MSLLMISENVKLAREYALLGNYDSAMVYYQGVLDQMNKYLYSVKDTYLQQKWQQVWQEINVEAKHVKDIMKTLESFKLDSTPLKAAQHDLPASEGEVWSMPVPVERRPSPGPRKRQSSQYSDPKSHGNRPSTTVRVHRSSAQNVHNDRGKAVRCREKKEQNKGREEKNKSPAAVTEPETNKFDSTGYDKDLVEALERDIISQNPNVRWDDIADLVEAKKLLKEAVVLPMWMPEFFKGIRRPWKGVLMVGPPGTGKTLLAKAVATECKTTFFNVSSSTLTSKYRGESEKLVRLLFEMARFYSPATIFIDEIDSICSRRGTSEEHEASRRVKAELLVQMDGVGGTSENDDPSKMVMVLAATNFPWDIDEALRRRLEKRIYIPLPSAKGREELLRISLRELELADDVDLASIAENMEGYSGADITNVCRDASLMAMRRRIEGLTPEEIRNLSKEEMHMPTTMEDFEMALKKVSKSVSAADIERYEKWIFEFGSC
UniProt P17535: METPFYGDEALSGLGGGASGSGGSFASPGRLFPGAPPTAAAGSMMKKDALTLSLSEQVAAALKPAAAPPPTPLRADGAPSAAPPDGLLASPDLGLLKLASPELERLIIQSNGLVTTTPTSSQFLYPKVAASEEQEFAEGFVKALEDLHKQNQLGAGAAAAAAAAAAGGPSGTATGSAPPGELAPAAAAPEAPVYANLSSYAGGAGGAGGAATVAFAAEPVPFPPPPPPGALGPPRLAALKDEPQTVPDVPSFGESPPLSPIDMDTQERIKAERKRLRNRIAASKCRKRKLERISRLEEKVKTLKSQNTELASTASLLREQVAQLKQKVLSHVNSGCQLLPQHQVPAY
UniProt Q75QN2, whole entry, looked up: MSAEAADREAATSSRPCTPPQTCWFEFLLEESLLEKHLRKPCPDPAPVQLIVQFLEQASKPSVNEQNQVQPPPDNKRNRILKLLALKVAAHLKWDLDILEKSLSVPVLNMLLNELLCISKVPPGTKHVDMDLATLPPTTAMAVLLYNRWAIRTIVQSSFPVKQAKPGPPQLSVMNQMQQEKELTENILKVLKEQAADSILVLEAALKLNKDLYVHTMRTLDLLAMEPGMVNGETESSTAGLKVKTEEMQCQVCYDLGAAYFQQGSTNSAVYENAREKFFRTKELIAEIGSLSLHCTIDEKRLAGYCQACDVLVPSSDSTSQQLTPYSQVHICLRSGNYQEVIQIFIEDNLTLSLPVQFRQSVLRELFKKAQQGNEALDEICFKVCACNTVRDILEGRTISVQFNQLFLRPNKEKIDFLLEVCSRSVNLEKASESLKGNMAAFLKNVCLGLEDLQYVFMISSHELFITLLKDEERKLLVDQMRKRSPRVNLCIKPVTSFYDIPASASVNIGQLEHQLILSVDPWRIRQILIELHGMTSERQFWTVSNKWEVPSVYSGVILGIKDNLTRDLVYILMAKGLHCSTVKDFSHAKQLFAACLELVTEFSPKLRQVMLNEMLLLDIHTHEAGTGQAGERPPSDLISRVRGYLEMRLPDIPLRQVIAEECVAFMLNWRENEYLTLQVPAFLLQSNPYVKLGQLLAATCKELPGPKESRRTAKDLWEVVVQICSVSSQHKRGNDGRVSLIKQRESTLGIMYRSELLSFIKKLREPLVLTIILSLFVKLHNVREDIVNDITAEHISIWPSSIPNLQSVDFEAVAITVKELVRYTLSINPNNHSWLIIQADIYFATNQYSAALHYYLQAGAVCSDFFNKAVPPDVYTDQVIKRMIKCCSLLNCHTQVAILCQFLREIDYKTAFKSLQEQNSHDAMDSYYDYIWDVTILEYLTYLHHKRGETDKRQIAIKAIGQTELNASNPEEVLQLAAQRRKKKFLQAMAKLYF
UniProt Q14653: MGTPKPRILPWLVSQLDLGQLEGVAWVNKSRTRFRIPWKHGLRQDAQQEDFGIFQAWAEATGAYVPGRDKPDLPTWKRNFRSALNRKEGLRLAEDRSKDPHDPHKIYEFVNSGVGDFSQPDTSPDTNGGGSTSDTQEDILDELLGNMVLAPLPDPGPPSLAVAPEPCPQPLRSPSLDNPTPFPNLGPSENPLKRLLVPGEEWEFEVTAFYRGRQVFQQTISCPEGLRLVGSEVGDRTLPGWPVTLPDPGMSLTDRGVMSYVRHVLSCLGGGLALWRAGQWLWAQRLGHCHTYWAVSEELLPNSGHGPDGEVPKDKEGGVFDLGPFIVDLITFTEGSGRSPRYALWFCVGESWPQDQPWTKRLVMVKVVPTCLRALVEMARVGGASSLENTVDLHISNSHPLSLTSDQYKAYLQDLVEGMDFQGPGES

log2 fold change, inactive:
ITPKA (UniProt P23677) -0.027
KCTD15 (UniProt Q96SI1) 0.008
IPO4 isoform 2 (UniProt Q8TEX9) 0.009
IVNS1ABP (UniProt Q9Y6Y0) -0.01
KAT8 (UniProt Q9H7Z6) 0.026
KCMF1 (UniProt Q9P0J7) -0.008
ITGAV (UniProt P06756) 0.01
INTS14 (UniProt Q96SY0) -0.011
ISOC2 (UniProt Q96AB3) -0.036
KCTD5 (UniProt Q9NXV2) -0.1
ITPK1 (UniProt Q13572) 0.04
KATNAL1 (UniProt Q9BW62) -0.036
INTS9 (UniProt Q9NV88) -0.032
IQGAP1 (UniProt P46940) 0.021
IRGQ (UniProt Q8WZA9) -0.018
ISG15 (UniProt P05161) -0.032
IST1 (UniProt P53990) 0.011
INTS4 (UniProt Q96HW7) 0.047
KBTBD2 (UniProt Q8IY47) -0.202
KBTBD4 isoform 2 (UniProt Q9NVX7) -0.039
KARS1 (UniProt Q15046) 0.02
ITSN2 (UniProt Q9NZM3) 0.046
KATNA1 (UniProt O75449) 0.057
ITGA5 (UniProt P08648) 0.003
ISCU (UniProt Q9H1K1) 0.027
JUND (UniProt P17535) 0.033
ITSN1 isoform 8 (UniProt Q15811) 0.043
INTS5 (UniProt Q6P9B9) 0.081
KANSL3 (UniProt Q9P2N6) 0.071
IQSEC1 (UniProt Q6DN90) 0.001
ITPA (UniProt Q9BY32) 0.029
INTS8 (UniProt Q75QN2) -0.029
KDELR2 (UniProt P33947) -0.002
IP6K1 (UniProt Q92551) 0.032
IRF3 (UniProt Q14653) -0.033
IWS1 (UniProt Q96ST2) 0.002
KCNK5 (UniProt O95279) -0.024

Random excerpt: 2 entries already listed
log2 fold change, inactive:
KCTD15 (UniProt Q96SI1) 0.008
KARS1 (UniProt Q15046) 0.02

— the supplement of paper PMC10849652
